This is an account of results in patent publication EP0341603A2 (ABBOTT LABORATORIES, priority 1988, dated 1989).

The series is described as follows: general procedure: Boc solid-phase peptide synthesis; p-Methyl-Benzhydrylamine resin; N-alpha-t-Boc-Arg(N^G-Tos) Merrifield resin; benzhydrylamine resin; diisopropylcarbodiimide. Conditions: whole synthesis, scale 0.8 g protected peptide resin.

“Arginyl-Cysteinyl-D-Alanyl-Phenylalanyl-Glycyl-Glycyl-Arginyl-Leucyl-Aspartyl-Arginyl-Isoleucyl-Cysteinyl-Phenylalanyl-Arginyl-Carboxamide Cyclic Disulfide” had an isolated mass of 28 mg and an isolated yield of 6%.
